Over roughly 33,000 sequences, “E-score (-0.5 to 0.5)” has its median near -8e-05; the highest 2% begin near 0.23. The list shows a part of the results.
Molecular target: T1, Nrg2 (UniProt P38082)
T1 sequence: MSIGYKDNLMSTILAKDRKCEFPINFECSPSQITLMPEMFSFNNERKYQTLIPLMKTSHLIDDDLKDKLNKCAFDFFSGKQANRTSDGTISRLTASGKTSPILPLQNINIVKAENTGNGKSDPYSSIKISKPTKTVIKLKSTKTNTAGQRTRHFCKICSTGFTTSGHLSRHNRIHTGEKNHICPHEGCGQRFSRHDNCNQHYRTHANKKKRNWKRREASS
Assay: PBM E-score (8-mer binding enrichment) (E-score (-0.5 to 0.5)); higher = stronger / more preferred TF binding
Conditions: protein concentration: 100 nM; construct: GST-full length
Procedure, shortened: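 PURExpress in vitro transcription/translation supplied GST-tagged yeast transcription factors, either full-length or DNA-binding domain. Applied at about 100-200 nM to universal all-10-mer Agilent arrays double-stranded by primer extension, the bound protein was detected with fluorescent anti-GST. E-scores, modified Wilcoxon-Mann-Whitney statistics, were given by the Universal PBM Analysis Suite to ungapped eight-base words pooled with their reverse complements after masliner normalisation.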

Sequence	PBM E-score
CGGCAACC	-0.182
CAGTCTAC	-0.272
ACTACTTC	0.0422
TGCTCTAA	-0.107
GATATATA	0.247
CGCTATGC	-0.00446
AGGCGCAG	-0.172
GTGGTGGA	-0.223
CCCACAGA	-0.125
CGGATAGA	0.111
ATCAGATA	0.0611
AACCTCGT	0.0968
ATCTTAGG	-0.0648
AGACTAGG	-0.136
GGTACCTA	-0.0206
CGATTAGA	-0.0091
ACCCCCCA	-0.406
CTGTACTC	0.0889
CGACTGAA	-0.149
ACAATGGA	0.159
ACGCTTCC	-0.0968
CGCTCCGA	0.163
GGTGGCCA	-0.176
GAAAGATA	0.118
AGTGGGCG	0.0689

Sequence	PBM E-score
CGTACTAA	0.224
AATCCGAC	0.0893
CAAGCGTG	0.127
TCTATACA	-0.0584
GACTAAAC	0.00156
CCGTCCCA	-0.0451
ATGCTCGA	-0.0173
ATGATAAT	0.128
GGCCTGGA	-0.225
CACAAGTC	-0.162
TATAGCGA	-0.117
GGGCCATA	-0.00217
CTTCGCAA	0.0484
CACCAGCC	-0.121
CTTTGACA	-0.129
ACGGATAC	0.212
ACCGGTAG	-0.208
TCTCTTAA	0.123
AAACATGA	-0.0382
AAAGTGGC	-0.0116
GATGGGTA	0.0417
AGTGTCCC	0.0789
AATAATCG	0.139
ATCAGGTC	0.0284
GCTCATAA	0.0365

Sequence	PBM E-score
ATATCTAC	0.0734
GCCTGTAA	-0.225
GCGACTAA	0.166
CGGTTGTC	0.138
ATCTTCCA	-0.0745
AGTTATAG	0.0148
ATTACCTA	0.0485
AGCTCGAC	-0.0667
CCCAGGCC	-0.141
ATATAGCC	0.0747
CGGGTAGC	-0.163
CTTGGCAC	-0.0589
GCCAGAAC	-0.0622
ACGTTTGA	0.136
CTTGGCCA	-0.0664
AGGAAGAA	-0.0201
AGCTTTAC	-0.26
CGTTGACA	0.00462
ACGGGGAC	0.0269
GAAAGAAC	0.0456
CAGAGACG	0.0459
AGTGAGAG	-0.116
GCCCAGCA	-0.0115
ACCGCGGA	0.187
ACTACCAA	-0.066

Sequence	PBM E-score
AGATAACC	-0.128
ATTAGACC	-0.3
CCGCAAAA	-0.0629
CCGATTCA	-0.0659
CGGGCCCA	-0.128
AGGACCCC	0.183
CAACGACC	-0.0624
GTGGGAAA	-0.0347
CTCACCCA	0.0228
CCGGGTAC	-0.0499
ATTAGTAG	-0.0113
GACTATCC	0.0417
ACACCTCT	0.0761
CAGAGACA	-0.109
AACAACTT	0.141
GCCACGGA	-0.0858
CTCCCATC	-0.0905
ACACTTTG	0.00655
GAATTAGA	0.11
CGGCCTCA	0.0926
ACAACTTC	0.196
AGCTCGTC	0.00159
TTATGAAA	0.197
GCTGCAAA	0.056
ATGGCTGA	-0.0555

Sequence	PBM E-score
CGCCGGAC	0.0155
CAATCCTG	0.0834
CACTCCGG	0.165
AATCGAAG	0.264
CCGATGCC	-0.0207
ATTTGCGG	0.141
TAGCGAGA	-0.153
AGCCTAGC	-0.248
AACCCTCT	-0.172
CCGCGTCA	-0.252
AGACCCGA	0.137
CTACACTC	-0.0863
TGCTACCA	-0.123
TAGCACGA	-0.01
ACCTCTTG	-0.0684
AACCCGAA	0.0237
CGACTTAG	-0.127
AACGGCGT	-0.11
AGTACGAG	0.0997
GCTAACTA	0.126
GCCCTAAA	-0.297
ACTCTTCG	-0.13
GCCCCTTA	0.114
ACTAACAT	0.146
ACTCCAGT	0.0302

Sequence	PBM E-score
GAGTTTAC	-0.0565
CTACTGTC	-0.0435
ACCAAACG	-0.0955
GAGGTCCC	0.0748
ATATTACC	0.193
TACTAGTA	0.149
AATTATCG	0.158
TGCGCACA	0.00373
GCTAGCAA	-0.0969
CGCGGGGC	0.0564
AATATAGC	0.0275
AGAAGAAA	0.0063
GAGTTCGA	0.142
AATCGGGG	-0.0292
GCTCTCGA	-0.0195
ACATAGGA	-0.154
ACTAGAGC	-0.0404
CAGCCGCC	-0.111
CAAGAGTA	0.0414
CCGACTCA	-0.0312
AGTTTGTA	0.0996
CGATCGGA	-0.114
GAGACCAC	-0.0605
AGGTTGAT	-0.098
ATACCAGC	0.0746

Sequence	PBM E-score
ATATCGAC	0.255
CGTATTCA	0.103
CGATTACG	-0.0644
GACCTACC	-0.0253
ATTTGAAG	-0.0398
CGTGACAC	0.0236
CGCGACTC	-0.0153
TATAGAGA	-0.181
CCATTTCA	-0.00809
AGCAGATG	-0.062
GCAACGAC	-0.153
CTCATGTA	0.0515
AATCGAAA	0.0902
AAAGCGGG	-0.166
AAATGAAG	0.0984
ACAAACCA	0.061
ACTGCTGA	-0.145
AACGCGCA	0.0385
AGATCAAA	0.0337
GCCATCTA	-0.016
CCTGTAGA	0.125
AGAATAAG	0.113
ATACCCTG	0.295
ACTCCACG	-0.152
ATAATAAC	0.177

Sequence	PBM E-score
CTGAGTAA	0.124
CTAAGCCA	-0.213
AAAAAATT	0.0948
AGTCCCAG	-0.0206
GGGCCGCA	-0.0119
CCGTTAAC	-0.00134
CTCCTTGA	-0.175
AGTTGGAC	0.141
ACGAGTAT	0.0482
CACCAGGG	-0.0175
CATGTTGG	-0.0788
GGCAATCA	0.0621
ACCAAGCT	0.162
AAACGGAA	0.139
GCGGAGGA	-0.159
CCTATGGA	0.00679
CAACTAAC	0.213
CCAGACGC	-0.0802
ACGCGTGG	-0.0608
CCTGGTGC	-0.0298
TGCCCAAA	-0.166
AAGGTGGG	-0.145
AACCTAAC	0.0551
GGCATTTA	-0.00361
CCAGATAA	0.0757

Sequence	PBM E-score
AAGTGCCT	-0.258
ACCCTGCG	0.254
ATGTGTAC	-0.0781
ATGAGCTG	0.0454
AGCACTAC	-0.0695
CAAGCAGA	0.06
ATAGCGCC	-0.0454
ATTCGCCC	0.0708
ATTAGCTA	0.186
CAACCGGC	0.0524
AGGCTTTG	-0.058
CCGTGACA	-0.005
CGGGTGGC	-0.332
GATCTGTA	0.0978
GTATCTGA	-0.0255
AGGTCATG	-0.07
AGGTCAGA	-0.00746
TTAGTCAA	-0.111
ATGCTCGG	0.117
CTCCCGGC	-0.0972
AAGTGGAT	-0.15
CGTTGTCA	0.128
AAACGTCT	5e-05
CCGAGGCC	-0.138
ATACTTCC	0.208

Laid out differently: entries from further up.
Sequence | PBM E-score
AGTTGGAC | 0.141
ACGAGTAT | 0.0482
CACCAGGG | -0.0175
CATGTTGG | -0.0788
GGCAATCA | 0.0621

(continued)

Sequence	PBM E-score
CAACTGTC	-0.0271
ACGTGGGG	0.0377
ATACGAGA	0.0118
GAATACTC	0.00141
GACTGGGC	-0.267
GTCGATGA	0.00313
CGATCTGC	-0.0778
GCGAGGTA	-0.0448
CGTTGAAG	-0.18
TACGTGGA	-0.0974
CCTTGTCC	0.0636
AGTCAGCA	-0.0526
ACAGGGGA	-0.00166
AGCTTAAT	0.196
CTCTGCTC	-0.0804
CCTCTAGA	-0.0463
GCGAGTAC	0.115
ATACTTGC	0.0189
GGACCACA	0.114
CGTTTTAG	-0.0848
ACGAAGTA	-0.0054
GCTCAGGA	-0.078
AAAGTGTT	0.0175
ACATCGCT	-0.0194
CGGCAAAC	0.106

Sequence	PBM E-score
GGACTGTA	-0.113
ACTCGGGG	-0.112
AGGTTCCA	-0.098
AGGCAGAT	0.0547
CCTCCAGA	0.0237
AATGCGGT	-0.117
CATCCCTC	0.0425
ATCATTGG	-0.0111
GGAGTCCA	-0.142
TAATTAAA	-0.0298
TAAATGCA	0.275
AGTCAGAG	-0.0706
TAATCGCA	0.179
AGCGTTGC	0.101
AAGAGAAG	-0.0556
AGTGTTGC	0.0975
CAACGGCG	0.0207
TAGAACGA	-0.0162
ACTCACCC	0.0888
ACTCCGCC	-0.0663
ACGACAGG	0.0639
AATATGTA	0.106
AGGTTCGC	-0.254
CAAGTGAA	-0.0132
TGAACGAA	0.0651

Sequence	PBM E-score
ATACACCC	0.0186
AAGCTTAC	-0.0311
TCGGTGAA	-0.0764
TAACATGA	0.0672
GAGGGAGA	-0.0868
CGCCCTGC	0.0776
AAAACCTC	0.168
CAGTGCTC	-0.122
ATTAAGCA	-0.00766
ACTGTGCA	0.032
TGAGGCCA	0.0312
CCTTTTTA	-0.0656
CGAGGTTA	-0.0225
CGTAAATC	-0.0787
CATTGGAC	-0.0127
AGCCTACG	0.0365
AAGCGTAC	-0.176
AATCTATA	0.0713
ATAGGATG	0.204
AGCGAGGC	-0.0817
CGGGGTGA	0.0813
AGTCCGCC	-0.163
CACGTACA	-0.151
ATAGTAAG	-0.0266
GACTTCGA	-0.106

Quoted from the listing.
PBM E-score with CCCAGGCC is entered as -0.141
PBM E-score with TTATGAAA is entered as 0.197
PBM E-score with CGACTTAG is entered as -0.127

7 entries drawn at random from those above, as already listed:
Sequence	PBM E-score
CGAGGTTA	-0.0225
AAAACCTC	0.168
ACTGTGCA	0.032
CATTGGAC	-0.0127
CCTTTTTA	-0.0656
AAGCGTAC	-0.176
CACGTACA	-0.151

The results go on.

Sequence	PBM E-score
CAGCTTCG	0.0387
GCGAGTTA	0.162
GATTTAGA	-0.0272
CGCAACCG	-0.00904
AAGTATTA	0.129
GCTCAGCA	-0.133
TAGTCCGA	-0.0335
GACCAAAC	0.0764
ACACCCGC	0.224
AATAGGTG	-0.0127
ACCCCTAC	0.00018
AAAAACAT	0.0946
AGCCCTAT	0.107
CTTACACC	-0.12
CTTGGACA	-0.0703
CGTAGAAA	-0.0991
GAAACTTA	0.206
CAGTCGCC	-0.0835
TGAACCCA	0.157
AGATTCAT	-0.0273
AGGAAGCA	-0.0844
AGTTTTTA	-0.134
CAAGTGGA	-0.0345
CCTGAGGA	0.0658
CGTACTAC	-0.00081

Sequence	PBM E-score
CACAACAA	-0.0736
AATCTGGT	0.125
AGCCGGAT	-0.0222
AAACTTTA	0.0843
ATAGGCTG	-0.127
ACTATGTC	-0.0732
AGCCTTGC	0.0158
AGTCAGGG	0.0383
ACGTAGGG	-0.292
GCTTCGAC	-0.0891
GAGGATCA	-0.0642
CGAGCAGC	0.149
TGCGGCCA	-0.0142
AATTTAGT	0.226
AGATGGAA	0.109
GTGGTTGA	-0.055
CGGTTCGC	2e-05
AAGGCGTA	-0.214
CCAAATGG	-0.0658
